# According to PubChem BioAssay AID504834 (National Center for Advancing Translational Sciences (NCATS), 2011):
# In all, about 320,000 compounds went through this assay and about 22,000 (6.9%) were called active. Inconclusive results, whose numbers are uncertain, are shown with a selection of clear calls. Calls follow the shape of the dose curve; as a rule, active = well fitted inhibition curve with a large enough effect; inconclusive = small, poorly fitted or top-dose-only effect, or another doubt; inactive = no such curve, though single readings can be large or run the other way. Where the call is inconclusive, the potency comes from a doubtful curve fit.
# Assay: Primary qHTS for delayed death inhibitors of the malarial parasite plastid, 96 hour incubation
# Details: P. falciparum luciferase reporter growth; series mostly up to 28.7 µM
# How it was run: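 Parasite growth measured via integrated firefly luciferase reporter in P. falciparum. Infected erythrocytes at 2% hematocrit, 0.05% parasitemia final were treated 96 hours at 37 C under 5% CO2, and luminescence was read.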
# % is scaled to controls: 0 for no effect and ±100 for the full control effect; potency is read from the fitted curve at half-maximal effect.
SMILES,Potency,"activity change, negative = inhibition"
Cc1ccc(N(CCC#N)C(=O)CSc2nc3ccccc3c(=O)[nH]2)cc1,"inconclusive: 14.7 µM [inhibitor, partial curve, poor fit]",–
CCN1C(=NCCOC)N[C@@H](c2cccc(F)c2)C(C(=O)OC)=C1C,"inconclusive: 13.1 µM [inhibitor, partial curve]",–
CN(C)c1ccc(/C=C2\CCC/C(=C\c3ccccc3)C2=O)cc1,"inconclusive: 18.5 µM [inhibitor, single point]",–
COc1ccc(NC(=O)c2cc3c(-c4ccc(OC)c(OC)c4)nn(C)c3s2)cc1OC,inactive,–
Cc1noc(NC(=O)c2cccc(Cl)c2Cl)c1C#N,inactive,–
COc1ccc(N=C2S/C(=C\c3ccc(OCC(=O)O)cc3)C(=O)N2CCc2c[nH]c3ccccc23)cc1,"inconclusive: 1.17 µM [inhibitor, full curve, poor fit]",–
C=CCn1c(CCNC(=O)c2ccc(Cl)c(Cl)c2)nnc1SCCOc1ccc(OC)cc1,"inconclusive: 6.57 µM [inhibitor, partial curve]",–
COc1cc(OC)cc(C(=O)NC(C(=O)NCCN(C)C)C23CC4CC(CC(C4)C2)C3)c1 (stereo unspecified),–,inactive: 1.65% [at 5.75 µM]
O=C(O)C1Cc2ccccc2CN1C(=O)CCl (stereo unspecified),"inconclusive: 18.5 µM [inhibitor, single point]",–
CC(=O)c1cccc(NC(=O)/C=C/c2ccc([N+](=O)[O-])s2)c1,"inconclusive: 9.28 µM [inhibitor, single point]",–
COc1ccc(CNC(=O)C2=CCN(S(=O)(=O)c3ccc(C)cc3)CC2)cc1,inactive,–
O=c1cc(O)c2c(=O)n(-c3ccccc3)c3ccccc3c2o1,active: 11.7 µM,–
COC(=O)C1Cc2ccccc2CN1S(=O)(=O)c1ccc(C)cc1 (stereo unspecified),"inconclusive: 18.5 µM [inhibitor, single point]",–
CN(CC(=O)Nc1ccc(F)cc1)C(=O)CCc1nc2ccccc2c(=O)[nH]1,"inconclusive: 8.28 µM [inhibitor, single point]",–
CCOc1ccccc1N(CC(=O)NCCSCc1ccco1)S(=O)(=O)c1ccccc1,inactive,–
CCOc1ccccc1CN1C2CCC1CC(c1ccc(C)cc1)C2 (stereo unspecified),"inconclusive: 18.5 µM [inhibitor, single point]",–
Cc1ccc(S(=O)(=O)Cc2ccc(C(=O)N3CCN(c4cccc(C)c4C)CC3)o2)cc1,active: 3.7 µM,–
COc1ccccc1C1=CC(=O)CC(C)(C)C1=O,inactive,–
O=[N+]([O-])c1cc(/C=N/O)ccc1Oc1cccc(Cl)c1,inactive,–
N#Cc1ccsc1NC(=O)CN1CCCCC1,inactive,–
COc1ccc(-c2nc3ccccc3c(=O)n2CCN2CCOCC2)cc1,"inconclusive: 11.7 µM [inhibitor, single point]",–
CCOC(=O)c1[nH]c2ccccc2c1NC(=O)c1ccc2c(c1)OCO2,inactive,–
O=c1c2ccccc2nc2c3ccccc3c3nncn3n12,"inconclusive: 1.47 µM [inhibitor, partial curve]",–

# Structures shown so far that contain an NH in an aromatic ring:
SMILES,Potency,"activity change, negative = inhibition"
Cc1ccc(N(CCC#N)C(=O)CSc2nc3ccccc3c(=O)[nH]2)cc1,"inconclusive: 14.7 µM [inhibitor, partial curve, poor fit]",–
COc1ccc(N=C2S/C(=C\c3ccc(OCC(=O)O)cc3)C(=O)N2CCc2c[nH]c3ccccc23)cc1,"inconclusive: 1.17 µM [inhibitor, full curve, poor fit]",–
CN(CC(=O)Nc1ccc(F)cc1)C(=O)CCc1nc2ccccc2c(=O)[nH]1,"inconclusive: 8.28 µM [inhibitor, single point]",–
CCOC(=O)c1[nH]c2ccccc2c1NC(=O)c1ccc2c(c1)OCO2,inactive,–

# Later entries

SMILES,Potency,"activity change, negative = inhibition"
COc1ccc(-n2nc(C(N)=O)nc2-c2ccccc2)cc1,"inconclusive: 11.7 µM [inhibitor, single point]",–
Cc1ccc(C(NC(=O)Nc2ccccn2)C(Cl)(Cl)Cl)cc1F (stereo unspecified),active: 13.1 µM,–
COc1ccc(OC)c(C2=Nn3c(nnc3-c3ccco3)SC2)c1,inactive,–
Cc1ccc(/C=C2\SC(=S)N(NS(=O)(=O)c3ccc(C)cc3)C2=O)cc1,inactive,–
CCOC(=O)c1ccc(Nc2nc(C)cc(=O)[nH]2)cc1,"inconclusive: 18.5 µM [inhibitor, single point]",–
CCCNC(=O)C1CC(=O)N(c2ccc(OCc3ccc(F)cc3)cc2)C1 (stereo unspecified),"inconclusive: 18.5 µM [inhibitor, single point]",–
CN(c1ccc(Cl)cc1)S(=O)(=O)c1nnc(NC(=O)C(C)(C)C)s1,"inconclusive: 18.5 µM [inhibitor, single point]",–
Cc1c(C)n2c(SCC(=O)NC3CCCC3)nnc2[nH]c1=O,"inconclusive: 8.28 µM [inhibitor, partial curve, poor fit]",–
CC(C)(C)CN1CCNC(=O)C1CC(=O)NC1Cc2ccccc2C1 (stereo unspecified),"inconclusive: 18.5 µM [inhibitor, single point]",–
COc1ccc(OC)c(-n2cnnn2)c1,"inconclusive: 0.0928 µM [inhibitor, full curve, poor fit]",–
COc1ccc(NC(=O)c2c(C)nn(Cc3ccccc3)c2C)cc1S(=O)(=O)N(C)C,inactive,–
c1ccc(C(c2nnnn2Cc2ccco2)N2CCN(C3CCCC3)CC2)cc1 (stereo unspecified),"inconclusive: 10.4 µM [inhibitor, single point]",–
Cc1nc2ccccc2n1CC(=O)NCCN1CCOCC1,"inconclusive: 0.415 µM [inhibitor, full curve, poor fit]",–
COCc1c(C(=O)OC/C(O)=C(\C#N)c2nc3ccccc3[nH]2)oc2ccccc12,inactive,–
COc1cccc(NC(=O)C(C)Oc2ccccc2)c1 (stereo unspecified),"inconclusive: 14.7 µM [inhibitor, single point]",–
CC1CCCCN1Cc1c(O)ccc2c(=O)c(-c3ccc(Br)cc3)coc12 (stereo unspecified),active: 5.86 µM,–
O=C(CNc1cccc2ccccc12)N/N=C/c1cccc(Oc2ccccc2)c1,"inconclusive: 14.7 µM [inhibitor, single point]",–
O=C1C2CCN(CC2)C1Cc1ccccc1O (stereo unspecified),inactive,–
COCCNC(=O)CS(=O)(=O)Cc1nc(-c2ccc(C)cc2)oc1C,"inconclusive: 13.1 µM [inhibitor, single point]",–
CCOC(=O)CC1(NC(=O)c2cc(COc3c(F)cccc3F)on2)CCCCC1,"inconclusive: 4.65 µM [inhibitor, partial curve]",–
Cc1c(Cl)cccc1NC(=O)c1cccc(OC(F)F)c1,"inconclusive: 11.7 µM [inhibitor, single point]",–
O=C(COc1ccccc1-c1ccccc1)NCc1ccco1,"inconclusive: 10.4 µM [inhibitor, partial curve, poor fit]",–
C=CCNc1nc(N)c([N+](=O)[O-])c(Nc2ccccc2OC)n1,"inconclusive: 10.4 µM [inhibitor, single point]",–
